# Test results as given in patent US5494909A, “Substituted oxazinoisoquinoline derivatives, pharmaceutical compositions containing them and process for preparing same” (priority 1991, dated 1996).
# Assays:
# [1] = tested on: Veratrine-stimulated Ca uptake, synaptosomes prepared from rat brain; format: biochemical, rat (Wistar); conditions: pH 7.4; read-out: Inhibition of Veratrine-stimulated Ca uptake IC50
# [2] = tested on: Potassium-stimulated Ca uptake, synaptosomes prepared from rat brain; assay: Inhibition of potassium-stimulated calcium uptake into rat brain synaptosomes; conditions: read-out: Inhibition of Potassium-stimulated Ca uptake IC50, 60 mmoles/l KCl, pH 7.4, 37° C., 20 seconds
smiles,measurement,setting,value
"C(=C\c1ccccc1)/CN1CCN(C(c2ccccc2)c2ccccc2)CC1 [cinnarizine, 1trans-cinnamyl-4-(diphenylmethyl)piperazine]",IC50,[1],1 µM
same,IC50,[2],71.6 µM
